Assay results reported in EP4218772A1, “LITHIUM SALT FOR USE IN TREATMENT OF PULMONARY HYPERTENSION” (Charité - Universitätsmedizin Berlin, priority 2022, dated 2023).
For at least one compound, name, drawing or mass did not settle the structure.

System: immortalized pulmonary arterial vascular muscle cells
Assay: IFT88 knock-down migration assay
Type: cell-based
Settings: siRNA against IFT88, rapamycin 200 nM, 24 hours, closing of the scratch, Fig. 6A, 6B

## CO[C@H]1C[C@@H]2CC[C@@H](C)[C@@](O)(O2)C(=O)C(=O)N2CCCC[C@H]2C(=O)O[C@H]([C@H](C)C[C@@H]2CC[C@@H](O)[C@H](OC)C2)CC(=O)[C@H](C)/C=C(\C)[C@@H](O)[C@@H](OC)C(=O)[C@H](C)C[C@H](C)/C=C/C=C/C=C/1C [Rapamycin]
  cell migration accelerated by IFT88 knock-down: normalize this behavior again
Listed as rapamycin
  cell migration accelerated by IFT88 knock-down: reduces it again
